Data published in PubChem BioAssay AID2551 (National Center for Advancing Translational Sciences (NCATS), 2010).
About 17,000 (5.5%) of roughly 310,000 compounds were called active. Inconclusive results, whose numbers are uncertain, are shown with a selection of clear calls. Calls come from the whole dose curve; as a rule, active = well fitted inhibition curve with a large enough effect; inconclusive = small, poorly fitted or top-dose-only effect, or effect the other way; inactive = no such curve, though single readings can be large or run the other way. Where the call is inconclusive, the potency comes from a doubtful curve fit.

Chains of the proteins cited; added tags and fusions are not shown. Lines headed by an entry give the natural chain unless they say otherwise; changes in a name come on top.
UniProt P51450: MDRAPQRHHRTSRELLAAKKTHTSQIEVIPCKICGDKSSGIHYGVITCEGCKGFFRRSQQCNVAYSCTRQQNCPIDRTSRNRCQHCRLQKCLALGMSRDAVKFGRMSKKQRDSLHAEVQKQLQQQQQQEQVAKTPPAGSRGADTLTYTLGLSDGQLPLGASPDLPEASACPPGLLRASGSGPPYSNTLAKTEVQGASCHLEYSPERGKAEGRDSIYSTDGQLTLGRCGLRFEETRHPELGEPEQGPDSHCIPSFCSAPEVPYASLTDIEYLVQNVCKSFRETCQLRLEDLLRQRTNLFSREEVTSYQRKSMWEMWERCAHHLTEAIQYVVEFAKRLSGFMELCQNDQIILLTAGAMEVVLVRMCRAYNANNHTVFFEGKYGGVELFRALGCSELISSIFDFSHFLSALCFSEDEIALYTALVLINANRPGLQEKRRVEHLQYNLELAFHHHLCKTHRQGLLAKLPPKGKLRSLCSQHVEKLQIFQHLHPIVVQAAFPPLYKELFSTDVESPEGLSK

molecular target: Nuclear receptor ROR-gamma (Mus musculus) (UniProt P51450); assay: qHTS for inhibitors of ROR gamma transcriptional activity; details: Drosophila S2 Gal4-RORgamma UAS-luciferase reporter, 20 h; activity change, negative = inhibition: at 53.6 µM (top of the series); note: nearly all actives have a fitted effect of over 60% in size
Summary of the method: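 Schneider cells (Drosophila), stable Gal4 DBD–ROR gamma + UAS-luc; 1 hr cmpd preincubation; Cu2+ induction 700 uM final; 20 hr ambient; luminescence.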
% is set by controls: 0 for no effect and ±100 for the full control effect; potency is the fitted concentration of half-maximal effect.

Row | Structure (SMILES) | Potency | activity change, negative = inhibition
1 | CC12CCC3C(CC=C4CC(O)CCC43C)C1C/C(=C\c1cccc(F)c1)C2=O (stereo not drawn) | inconclusive: 5.62 µM [activator, single point] | –
2 | CC1OC(=O)C(C(C)C)NC(=O)C(C(C)C)OC(=O)C(C(C)C)NC(=O)C(C)OC(=O)C(C(C)C)NC(=O)C(C(C)C)OC(=O)C(C(C)C)NC(=O)C(C)OC(=O)C(C(C)C)NC(=O)C(C(C)C)OC(=O)C(C(C)C)NC1=O (stereo not drawn) | active: 0.251 µM | –
3 | CSc1ncc(CN2CCCC(C(=O)c3ccccc3SC)C2)cn1 (stereo not drawn) | – | inconclusive: 46.7% [activator]
4 | O=C(CCCCCn1c(=S)[nH]c2ccccc2c1=O)N1CCC2(CC1)OCCO2 | active: 10 µM | –
5 | Fc1ccc(CCNCc2ccc(Br)cc2)cc1 | inactive | –
6 | COC1C(O)C(C)O[C@@H](OC2CC[C@@]3(C)C4CC[C@]5(C)C(C6=CC(=O)OC6)CC[C@@]5(O)C4CC[C@@H]3C2)C1O (stereo partly drawn) | inconclusive: 20 µM [inhibitor, partial curve] | –
7 | COc1ccc(NC2CC(=O)N(C(C)C)C2=O)cc1 (stereo not drawn) | inconclusive: 0.1 µM [activator, full curve, poor fit] | –
8 | Cc1nn(-c2ccccc2)c2c1C(c1ccc(F)cc1F)C(C#N)=C(N)O2 (stereo not drawn) | inconclusive: 20 µM [activator, single point] | –
9 | C=C1CC2C(CC[C@]3(C)C(=O)CCC23)[C@]2(C)C=CC(=O)C=C12 (stereo partly drawn) | inactive | –
10 | COC(=O)C[C@](O)(CCCC(C)(C)O)C(=O)O[C@@H]1C(OC)=C[C@]23CCCN2CCc2cc4c(cc2[C@H]13)OCO4 | inconclusive: 3.55 µM [inhibitor, full curve, poor fit] | –
11 | CC(=O)C(O)C(c1ccccc1)c1c(O)c2ccccc2oc1=O (stereo not drawn) | inactive | –
12 | OC[C@H]1O[C@@H](n2cnc3cc(Cl)c(Cl)cc32)[C@H](O)[C@H]1O | inconclusive: 35.5 µM [inhibitor, single point] | –
13 | O=C1C=CC(=O)c2c(O)cccc21 | inconclusive: 11.2 µM [inhibitor, single point] | –
14 | O=C(Cc1ccccc1[N+](=O)[O-])N1CCN(Cc2ccc3c(c2)OCO3)CC1 | inconclusive: 11.2 µM [activator, partial curve] | –
15 | COc1cc(/C=C(/C)[N+](=O)[O-])ccc1OCc1ccccc1Cl | active: 3.98 µM | –
16 | OC(c1cccc(Cl)c1)(c1cccc(Cl)c1)C1CN2CCC1CC2 (stereo not drawn) | active: 6.31 µM | –
17 | C/C(=N\N1CCCCC1c1cccnc1)c1c(O)n(C2CCCCC2)c(=S)[nH]c1=O (stereo not drawn) | active: 3.16 µM | –
18 | C=CCn1c(=O)c(C=Nc2c(OC)cccc2[N+](=O)[O-])c(O)n(CCCC)c1=O | inconclusive: 22.4 µM [activator, single point] | –
19 | CNNC | inactive | –
20 | COc1cccc(-n2c(/C=C/c3ccccn3)nc3ccccc3c2=O)c1 | inconclusive: 5.01 µM [activator, single point] | –
21 | CCCC1COC(Cn2cncn2)(c2ccc(Cl)cc2Cl)O1 (stereo not drawn) | inconclusive: 25.1 µM [inhibitor, single point] | –
22 | Cn1c(C(=O)O)c(CC(=O)N2CCN(Cc3ccccc3)CC2)c2ccccc21 | inactive | –
23 | C[N+]1(C)C2CC(OC(=O)C(CO)c3ccccc3)CC1C1OC12 (stereo not drawn) | inconclusive: 10 µM [activator, partial curve] | –

Row | Structure (SMILES) | Potency | activity change, negative = inhibition
24 | Oc1ccc(Cl)cc1Sc1cc(Cl)ccc1O | inconclusive: 2.51 µM [activator, partial curve, poor fit] | –
25 | CCC(C)C(=O)c1c(O)c(C)c2oc3c(C)c(O)c(C(=O)C(C)CC)c(O)c3c2c1O (stereo not drawn) | inconclusive: 35.5 µM [inhibitor, single point] | –
26 | COc1ccccc1OCCCn1cc(C=O)c2ccccc21 | inconclusive: 0.316 µM [inhibitor, full curve] | –
27 | CCN(c1ccc(C)cc1C)S(=O)(=O)c1nnc(NC(=O)c2ccco2)s1 | inconclusive: 3.55 µM [activator, partial curve, poor fit] | –
28 | Fc1ccc(NC2=NCCS2)cc1Cl | inconclusive: 15.8 µM [inhibitor, single point] | –
29 | CN1C(=O)C(=Cc2ccc(Sc3ccccc3)o2)C(=O)N(C)C1=O | inconclusive: 35.5 µM [inhibitor, single point] | –
30 | CN1c2ccc([N+](=O)[O-])cc2CC2(C(=O)NC(=O)N(c3ccc(Br)cc3)C2=O)C1c1ccccc1 (stereo not drawn) | inconclusive: 22.4 µM [activator, single point] | –
31 | CCCC1(CCC)C(=O)NC(=NCc2ccccc2)NC1=O | inactive | –
32 | C/C(N)=C(/C#N)C(=O)CSc1nc2cc(Cl)ccc2c(=O)n1-c1ccc(C)cc1 | inconclusive: 0.891 µM [activator, partial curve] | –
33 | C/C1=C\[C@@H](C)C/C=C/[C@H]2[C@@H]3O[C@]3(C)[C@@H](C)[C@H]3[C@H](Cc4c[nH]c5ccccc45)NC(=O)[C@]32C(=O)/C=C/C(=O)[C@@H]1O | active: 5.62 µM | –
34 | OCC1CCCN2CCCCC12 (stereo not drawn) | inactive | –
35 | CC(=O)N1N=C(c2c(O)n(C)c(=O)n(C)c2=O)CC1c1ccccc1 (stereo not drawn) | inconclusive: 35.5 µM [inhibitor, single point] | –
36 | CC(C)c1ccc(N2C(=O)NC(=O)/C(=C\C=C\c3ccco3)C2=O)cc1 | inconclusive: 35.5 µM [inhibitor, single point] | –
37 | C=CCn1c(=O)c(C(=O)NCc2ccccc2)c(O)c2ccccc21 | inconclusive: 35.5 µM [inhibitor, single point] | –
38 | C=CCn1c(-c2ccc([N+](=O)[O-])cc2)n[nH]c1=S | active: 11.2 µM | –
39 | O=C(Nc1ccc(F)cc1)c1c(O)c2c(n(Cc3ccccc3)c1=O)CCCC2 | inactive | –
40 | Cc1ccc(S(=O)(=O)N2CCCCC2)cc1NC(=O)CSc1ncnc2ccccc12 | inconclusive: 3.16 µM [activator, single point] | –
41 | Cc1ccccc1C(O)(Cc1ccccc1)C1CN2CCC1CC2 (stereo not drawn) | inconclusive: 0.1 µM [inhibitor, full curve, poor fit] | –
42 | c1cc2c(cc1[C@H]1OC[C@@H]3[C@H]1CO[C@H]3c1ccc3c(c1)OCO3)OCO2 | inactive | –
43 | O=C(c1ccc(Cl)cc1)C1CCCN(Cc2ccc3ncccc3c2)C1 (stereo not drawn) | inconclusive: 35.5 µM [inhibitor, single point] | –
44 | Cc1onc(-c2ccccc2Cl)c1C(=O)OCC(=O)c1ccc2c(c1)OCCO2 | inconclusive: 2.82 µM [activator, single point] | –
45 | O=c1[nH]c(O)c(N=Nc2cc([N+](=O)[O-])ccc2O)c(=O)[nH]1 | inactive | –
46 | Oc1ccccc1/C=N/NP(=S)(c1ccccc1)c1ccccc1 | active: 11.2 µM | –

Row | Structure (SMILES) | Potency | activity change, negative = inhibition
47 | CCC(C)C(=O)N[C@@H](c1ccccc1)[C@@H](O)C(=O)O[C@H]1C[C@@]2(O)[C@@H](OC(=O)c3ccccc3)C3[C@](C)(C(=O)[C@H](OC(C)=O)C(=C1C)C2(C)C)[C@@H](O)C[C@H]1OC[C@@]31OC(C)=O (stereo partly drawn) | inconclusive: 22.4 µM [activator, single point] | –
48 | CN1C(=O)C(Cc2nc3ccccc3c(=O)n2-c2ccccc2)c2ccccc21 (stereo not drawn) | inconclusive: 1.26 µM [activator, full curve, poor fit] | –
49 | CCN(CC)C(=O)/C(Cl)=C(\C)OP(=O)(OC)OC | – | inactive: -25.5% [at 10 µM]
50 | C=Cn1ccnc1P(=S)(c1ccc(N(C)C)cc1)c1nccn1C=C | active: 10 µM | –
51 | CCOC(=O)c1ccc(NC(=O)C2C3C=CC(O3)C2C(=O)O)cc1 (stereo not drawn) | inactive | –
52 | CN1C(=O)[C@]23CC4=CC=C[C@H](O)[C@H]4N2C(=O)[C@@]1(CO)SS3 | active: 0.0447 µM | –
53 | O=C(O)C1C2c3ccccc3C(c3ccccc32)C1C(=O)Nc1ccccc1 (stereo not drawn) | inconclusive: 17.8 µM [activator, single point] | –
54 | CC1CN=C(NCc2ccncc2)S1 (stereo not drawn) | inactive | –
55 | CCOC(=O)CSCCOc1ccc(C=C2C(=O)NC(=O)NC2=O)cc1OC | inconclusive: 35.5 µM [inhibitor, single point] | –
56 | S=C1Nc2ccccc2Sc2ccccc21 | active: 2 µM | –
57 | O=C1CC(N2CC=C(c3ccccc3)CC2)C(=O)N1c1ccc(F)cc1 (stereo not drawn) | inconclusive: 20 µM [inhibitor, single point] | –
58 | Cc1ccc(-n2c(O)c(/C=C/C=Nc3ccccc3)c(=O)[nH]c2=O)cc1 | inactive | –
59 | O=c1[nH]c(=O)n(Cc2ccc(F)cc2)c(O)c1C=NCC1CCCO1 (stereo not drawn) | inconclusive: 35.5 µM [activator, single point] | –
60 | O=Cc1cn(Cc2ccc([N+](=O)[O-])cc2)c2ccccc12 | inconclusive: 17.8 µM [activator, single point] | –
61 | O=C(O)c1ccc(/C=C/c2nc3ccccc3c(=O)n2-c2ccc(Br)cc2)cc1 | inconclusive: 0.631 µM [activator, full curve] | –
62 | Cc1cc(NC(=O)CCl)no1 | active: 2.51 µM | –
63 | N#CC1=C(N)Oc2c(c(=O)oc3ccccc23)C1c1ccncc1 (stereo not drawn) | inactive | –
64 | CCc1ccc(C(=O)NCc2ccc(Cl)cc2Cl)cc1 | inconclusive: 14.1 µM [activator, single point] | –
65 | CCc1c(C)nc(N)nc1N1N=C1SCC(N)=O | inactive | –
66 | CCCOC(=O)c1c(N)n(Cc2cccs2)c2nc3ccccc3nc12 | inconclusive: 35.5 µM [inhibitor, single point] | –
67 | CC1N(C)c2cc(NC(=O)c3ccco3)c(P(=O)(Nc3ccc([N+](=O)[O-])cc3)N3CCOCC3)cc2C1(C)C (stereo not drawn) | inconclusive: 11.2 µM [activator, partial curve] | –
68 | COc1ccc(CN2CCCC(C(=O)c3ccccc3SC)C2)cc1O (stereo not drawn) | inactive | –

Structures from the list above containing a Cl atom, in the order listed:
Row | Structure (SMILES) | Potency | activity change, negative = inhibition
12 | OC[C@H]1O[C@@H](n2cnc3cc(Cl)c(Cl)cc32)[C@H](O)[C@H]1O | inconclusive: 35.5 µM [inhibitor, single point] | –
15 | COc1cc(/C=C(/C)[N+](=O)[O-])ccc1OCc1ccccc1Cl | active: 3.98 µM | –
16 | OC(c1cccc(Cl)c1)(c1cccc(Cl)c1)C1CN2CCC1CC2 (stereo not drawn) | active: 6.31 µM | –
21 | CCCC1COC(Cn2cncn2)(c2ccc(Cl)cc2Cl)O1 (stereo not drawn) | inconclusive: 25.1 µM [inhibitor, single point] | –
24 | Oc1ccc(Cl)cc1Sc1cc(Cl)ccc1O | inconclusive: 2.51 µM [activator, partial curve, poor fit] | –
28 | Fc1ccc(NC2=NCCS2)cc1Cl | inconclusive: 15.8 µM [inhibitor, single point] | –
32 | C/C(N)=C(/C#N)C(=O)CSc1nc2cc(Cl)ccc2c(=O)n1-c1ccc(C)cc1 | inconclusive: 0.891 µM [activator, partial curve] | –
43 | O=C(c1ccc(Cl)cc1)C1CCCN(Cc2ccc3ncccc3c2)C1 (stereo not drawn) | inconclusive: 35.5 µM [inhibitor, single point] | –
44 | Cc1onc(-c2ccccc2Cl)c1C(=O)OCC(=O)c1ccc2c(c1)OCCO2 | inconclusive: 2.82 µM [activator, single point] | –
49 | CCN(CC)C(=O)/C(Cl)=C(\C)OP(=O)(OC)OC | – | inactive: -25.5% [at 10 µM]
62 | Cc1cc(NC(=O)CCl)no1 | active: 2.51 µM | –
64 | CCc1ccc(C(=O)NCc2ccc(Cl)cc2Cl)cc1 | inconclusive: 14.1 µM [activator, single point] | –
